{"source": "PubChem BioAssay AID270", "about": "(DTP/NCI, 2004)", "test_system": "BDF1 mice, s.c. Lewis lung carcinoma, T/C %", "experiment": "NCI In Vivo Anticancer Drug Screen. Data for tumor model Lewis Lung Carcinoma (subcutaneous) in B6D2F1 (BDF1) mice", "procedure,_shortened": "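First, mice carry a transplantable tumor. Next, groups receive either compound or vehicle. Finally, survival or tumor dimensions in the dosed animals are divided by the corresponding control figure.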", "key": {"[1]": {"details": "T/C endpoint: median survival time, dose: 30.0 mg/kg/injection, schedule: Q01DX009 (ip), vehicle: saline with Tween-80, higher T/C = longer survival"}, "[2]": {"details": "T/C endpoint: median survival time, dose: 67.0 mg/kg/injection, schedule: Q01DX001 (ip), vehicle: saline with Tween-80, higher T/C = longer survival"}}, "note": "The list shows only some results of the screen, not a fair sample: it is rich in T/C values a quarter to a half above the control, in often repeated tests (any T/C) and in doses without a T/C. Other doses and runs of a compound stand elsewhere. T/C gives the treated animals as a percentage of the vehicle group. Schedule codes are those of the source, taken here to give the interval after Q, in days (D) or hours (H), and the number of doses after X. Some doses have a count of surviving animals in place of a T/C: the source files T/C as zero there, which appears to mark a toxic dose or a test without result, not a measured value. Some survivor counts are full or nearly so, which does not show that the dose was tolerated: the source hardly ever lists a survival T/C far under the control, and the zero likely stands for such cases as well. Survivors were counted at the toxicity check, usually on the fifth day, unless a day is given; later deaths do not show. Some entries were tested several times; the results are listed from low to high. For survival time, this PubChem deposit counts one and a half times the control or more as active, and values a quarter to a half above the control carry no call in these data; other NCI protocols may use other cut-offs.", "data": [{"smiles": "COC(=O)[C@@H]1[C@@H](O)[C@H](OC(=O)c2cc(OC)c(OC)c(OC)c2)C[C@@H]2CN3CCc4c([nH]c5ccccc45)[C@H]3C[C@@H]21", "values": [{"measurement": "survivor count", "setting": "T/C endpoint: median survival time, dose: 10.0 mg/kg/injection, schedule: Q01DX009 (ip), vehicle: Klucel (hydroxypropylcellulose) (HPC), higher T/C = longer survival", "value": "10 of 10"}]}, {"smiles": "N/N=C(\\N)c1nn(C2OC(CO)C(O)C2O)c2ncnc(N)c12", "note": "(stereo unspecified)", "values": [{"measurement": "survivor count", "setting": "T/C endpoint: median survival time, dose: 160.0 mg/kg/injection, schedule: Q01DX005 (ip), vehicle: saline, higher T/C = longer survival", "value": "4 of 4"}, {"measurement": "survivor count", "setting": "T/C endpoint: median survival time, dose: 320.0 mg/kg/injection, schedule: Q01DX005 (ip), vehicle: saline, higher T/C = longer survival", "value": "0 of 4"}]}, {"smiles": "Nc1ccccc1Br", "values": [{"measurement": "T/C", "setting": "T/C endpoint: mean tumor weight, dose: 148.0 mg/kg/injection, schedule: Q01DX011 (ip), vehicle: other, evaluated on day 12, higher T/C = larger tumour", "value": "143 % of control"}, {"measurement": "survivor count", "setting": "T/C endpoint: mean tumor weight, dose: 500.0 mg/kg/injection, schedule: Q01DX011 (ip), vehicle: other, higher T/C = larger tumour", "value": "3 of 6"}]}, {"smiles": "COc1cccc(/C=C/[N+](=O)[O-])c1", "values": [{"measurement": "survivor count", "setting": "[1]", "value": "8 of 10"}, {"measurement": "survivor count", "setting": "T/C endpoint: median survival time, dose: 45.0 mg/kg/injection, schedule: Q01DX009 (ip), vehicle: saline with Tween-80, higher T/C = longer survival", "value": "8 of 10"}, {"measurement": "survivor count", "setting": "T/C endpoint: median survival time, dose: 60.0 mg/kg/injection, schedule: Q01DX009 (ip), vehicle: saline with Tween-80, higher T/C = longer survival", "value": "9 of 10"}]}, {"smiles": "CN[C@H]1CCc2cc(OC)c(OC)c(OC)c2-c2ccc(OC)c(=O)cc21", "values": [{"measurement": "survivor count", "setting": "T/C endpoint: mean tumor weight, dose: 11.0 mg/kg/injection, schedule: Q01DX011 (ip), vehicle: saline, higher T/C = larger tumour", "value": "3 of 6"}, {"measurement": "survivor count", "setting": "T/C endpoint: mean tumor weight, dose: 16.0 mg/kg/injection, schedule: Q01DX011 (ip), vehicle: saline, higher T/C = larger tumour", "value": "2 of 6"}]}, {"smiles": "CN(CCCOS(C)(=O)=O)CCCOS(C)(=O)=O", "values": [{"measurement": "survivor count", "setting": "T/C endpoint: mean tumor weight, dose: 80.0 mg/kg/injection, schedule: Q01DX011 (ip), vehicle: saline, higher T/C = larger tumour", "value": "3 of 6"}]}, {"smiles": "O=C1CCC(=O)N1Br", "values": [{"measurement": "T/C", "setting": "T/C endpoint: mean tumor weight, dose: 22.0 mg/kg/injection, schedule: Q01DX011 (ip), vehicle: other, evaluated on day 12, higher T/C = larger tumour", "value": "133 % of control"}, {"measurement": "T/C", "setting": "T/C endpoint: mean tumor weight, dose: 33.0 mg/kg/injection, schedule: Q01DX011 (ip), vehicle: other, evaluated on day 12, higher T/C = larger tumour", "value": "135 % of control"}, {"measurement": "survivor count", "setting": "T/C endpoint: mean tumor weight, dose: 600.0 mg/kg/injection, schedule: Q01DX011 (ip), vehicle: other, higher T/C = larger tumour", "value": "1 of 6"}]}, {"smiles": "O=NN(CCCl)C(=O)NC1CCC(NC(=O)N(CCCl)N=O)CC1", "note": "(stereo unspecified)", "values": [{"measurement": "T/C", "setting": "T/C endpoint: median survival time, dose: 30.0 mg/kg/injection, schedule: Q01DX001 (ip), vehicle: saline with Tween-80, higher T/C = longer survival", "value": "136 % of control"}, {"measurement": "survivor count", "setting": "T/C endpoint: median survival time, dose: 30.0 mg/kg/injection, schedule: Q04DX004 (ip), vehicle: saline with Tween-80, higher T/C = longer survival", "value": "10 of 10 on day 12"}, {"measurement": "survivor count", "setting": "T/C endpoint: median survival time, dose: 45.0 mg/kg/injection, schedule: Q04DX004 (ip), vehicle: saline with Tween-80, higher T/C = longer survival", "value": "10 of 10 on day 12"}, {"measurement": "T/C", "setting": "[2]", "value": "141 % of control"}, {"measurement": "T/C", "setting": "T/C endpoint: median survival time, dose: 101.0 mg/kg/injection, schedule: Q01DX001 (ip), vehicle: saline with Tween-80, higher T/C = longer survival", "value": "127 % of control"}, {"measurement": "T/C", "setting": "T/C endpoint: median survival time, dose: 120.0 mg/kg/injection, schedule: Q07DX002 (ip), vehicle: saline with Tween-80, higher T/C = longer survival", "value": "127 % of control"}, {"measurement": "survivor count", "setting": "T/C endpoint: median survival time, dose: 150.0 mg/kg/injection, schedule: Q07DX002 (ip), vehicle: saline with Tween-80, higher T/C = longer survival", "value": "10 of 10"}, {"measurement": "T/C", "setting": "T/C endpoint: median survival time, dose: 152.0 mg/kg/injection, schedule: Q01DX001 (ip), vehicle: saline with Tween-80, higher T/C = longer survival", "value": "129 % of control"}]}, {"smiles": "O=NN(CCCl)C(=O)NC1CCS(=O)(=O)C1", "note": "(stereo unspecified) (tested in a mixture with another compound)", "values": [{"measurement": "T/C", "setting": "T/C endpoint: median survival time, dose: 13.0 mg/kg/injection, schedule: Q01DX001 (ip), vehicle: saline with Tween-80, higher T/C = longer survival", "value": "148 % of control"}, {"measurement": "survivor count", "setting": "T/C endpoint: median survival time, dose: 13.0 mg/kg/injection, schedule: Q01DX009 (ip), vehicle: saline with Tween-80, higher T/C = longer survival", "value": "10 of 10"}, {"measurement": "T/C", "setting": "T/C endpoint: median survival time, dose: 20.0 mg/kg/injection, schedule: Q01DX001 (ip), vehicle: saline with Tween-80, higher T/C = longer survival", "value": "144 % of control"}, {"measurement": "survivor count", "setting": "T/C endpoint: median survival time, dose: 20.0 mg/kg/injection, schedule: Q01DX009 (ip), vehicle: saline with Tween-80, higher T/C = longer survival", "value": "10 of 10"}, {"measurement": "survivor count", "setting": "[1]", "value": "8 of 10 and 10 of 10"}, {"measurement": "survivor count", "setting": "T/C endpoint: median survival time, dose: 44.0 mg/kg/injection, schedule: Q01DX001 (ip), vehicle: saline with Tween-80, higher T/C = longer survival", "value": "9 of 10"}, {"measurement": "survivor count", "setting": "T/C endpoint: median survival time, dose: 44.0 mg/kg/injection, schedule: Q01DX009 (ip), vehicle: saline with Tween-80, higher T/C = longer survival", "value": "5 of 10 and 8 of 10"}, {"measurement": "survivor count", "setting": "[2]", "value": "9 of 10"}, {"measurement": "survivor count", "setting": "T/C endpoint: median survival time, dose: 67.0 mg/kg/injection, schedule: Q01DX009 (ip), vehicle: saline with Tween-80, higher T/C = longer survival", "value": "3 of 10"}]}]}
